According to the supplement of paper PMC10849652:
This is one part of the list.

Protein sequences, listed by entry. Tags and fused reporters are not part of them. Lines headed by an entry give the natural chain unless they say otherwise; changes in a name come on top.
UniProt Q13615: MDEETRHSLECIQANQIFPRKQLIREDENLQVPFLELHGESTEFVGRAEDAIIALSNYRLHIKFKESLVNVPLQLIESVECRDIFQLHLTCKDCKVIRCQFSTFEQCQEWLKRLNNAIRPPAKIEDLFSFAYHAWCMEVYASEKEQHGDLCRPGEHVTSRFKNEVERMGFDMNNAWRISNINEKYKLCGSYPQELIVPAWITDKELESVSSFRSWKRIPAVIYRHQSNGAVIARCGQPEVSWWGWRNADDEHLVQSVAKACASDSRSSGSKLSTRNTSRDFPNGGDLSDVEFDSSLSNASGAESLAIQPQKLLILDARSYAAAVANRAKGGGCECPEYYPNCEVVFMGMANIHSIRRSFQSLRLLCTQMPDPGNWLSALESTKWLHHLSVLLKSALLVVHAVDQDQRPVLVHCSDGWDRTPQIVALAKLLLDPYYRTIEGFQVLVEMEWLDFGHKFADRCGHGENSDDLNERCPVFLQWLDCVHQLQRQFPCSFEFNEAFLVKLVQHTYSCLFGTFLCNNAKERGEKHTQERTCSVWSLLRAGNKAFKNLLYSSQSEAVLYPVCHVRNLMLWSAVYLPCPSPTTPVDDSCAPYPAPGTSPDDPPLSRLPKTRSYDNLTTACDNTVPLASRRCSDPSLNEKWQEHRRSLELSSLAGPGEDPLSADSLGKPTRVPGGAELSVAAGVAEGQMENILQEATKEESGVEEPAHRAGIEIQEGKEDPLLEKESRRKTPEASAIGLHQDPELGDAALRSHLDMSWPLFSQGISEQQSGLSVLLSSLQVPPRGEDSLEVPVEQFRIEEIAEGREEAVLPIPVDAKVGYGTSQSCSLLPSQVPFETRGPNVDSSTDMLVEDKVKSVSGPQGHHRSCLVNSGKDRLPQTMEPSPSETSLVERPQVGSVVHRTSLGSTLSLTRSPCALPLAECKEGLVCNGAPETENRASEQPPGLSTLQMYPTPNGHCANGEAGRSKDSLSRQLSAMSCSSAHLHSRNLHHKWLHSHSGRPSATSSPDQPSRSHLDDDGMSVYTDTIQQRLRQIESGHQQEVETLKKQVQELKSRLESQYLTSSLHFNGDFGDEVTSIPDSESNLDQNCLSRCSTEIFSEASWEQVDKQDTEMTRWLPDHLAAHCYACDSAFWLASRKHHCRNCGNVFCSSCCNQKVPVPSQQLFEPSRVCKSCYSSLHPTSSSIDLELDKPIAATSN
UniProt P42898: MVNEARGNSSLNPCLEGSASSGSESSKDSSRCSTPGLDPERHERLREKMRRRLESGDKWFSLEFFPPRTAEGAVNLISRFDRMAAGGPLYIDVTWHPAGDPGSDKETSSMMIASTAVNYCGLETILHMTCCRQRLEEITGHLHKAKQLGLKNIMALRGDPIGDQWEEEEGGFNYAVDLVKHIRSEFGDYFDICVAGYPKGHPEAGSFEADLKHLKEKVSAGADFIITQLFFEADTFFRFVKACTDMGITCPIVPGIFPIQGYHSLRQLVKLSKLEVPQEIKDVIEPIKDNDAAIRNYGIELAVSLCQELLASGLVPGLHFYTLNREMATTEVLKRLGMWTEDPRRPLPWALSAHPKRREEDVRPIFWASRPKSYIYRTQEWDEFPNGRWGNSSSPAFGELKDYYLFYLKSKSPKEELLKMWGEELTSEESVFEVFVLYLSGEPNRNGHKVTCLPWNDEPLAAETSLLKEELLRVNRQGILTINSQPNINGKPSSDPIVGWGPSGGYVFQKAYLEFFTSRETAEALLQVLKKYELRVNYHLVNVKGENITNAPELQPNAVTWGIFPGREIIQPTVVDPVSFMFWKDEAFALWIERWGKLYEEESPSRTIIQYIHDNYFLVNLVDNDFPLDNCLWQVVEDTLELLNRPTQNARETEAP
UniProt P03915, whole entry, looked up: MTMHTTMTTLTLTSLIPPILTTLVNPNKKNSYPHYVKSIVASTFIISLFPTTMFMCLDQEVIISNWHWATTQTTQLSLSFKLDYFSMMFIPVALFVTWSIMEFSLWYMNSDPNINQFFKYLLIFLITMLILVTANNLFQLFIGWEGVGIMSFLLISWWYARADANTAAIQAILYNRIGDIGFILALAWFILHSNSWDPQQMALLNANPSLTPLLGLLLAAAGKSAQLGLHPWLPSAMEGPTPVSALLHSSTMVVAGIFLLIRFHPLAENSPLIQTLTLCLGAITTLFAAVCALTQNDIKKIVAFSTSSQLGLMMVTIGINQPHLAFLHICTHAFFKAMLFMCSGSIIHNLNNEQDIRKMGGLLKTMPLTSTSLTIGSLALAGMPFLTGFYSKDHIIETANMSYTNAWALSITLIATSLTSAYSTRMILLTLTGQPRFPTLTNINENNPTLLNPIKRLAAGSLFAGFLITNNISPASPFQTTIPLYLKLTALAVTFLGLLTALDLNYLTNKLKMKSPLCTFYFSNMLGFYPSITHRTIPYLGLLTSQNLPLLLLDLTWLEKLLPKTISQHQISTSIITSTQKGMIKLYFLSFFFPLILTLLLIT
UniProt Q9UBK8: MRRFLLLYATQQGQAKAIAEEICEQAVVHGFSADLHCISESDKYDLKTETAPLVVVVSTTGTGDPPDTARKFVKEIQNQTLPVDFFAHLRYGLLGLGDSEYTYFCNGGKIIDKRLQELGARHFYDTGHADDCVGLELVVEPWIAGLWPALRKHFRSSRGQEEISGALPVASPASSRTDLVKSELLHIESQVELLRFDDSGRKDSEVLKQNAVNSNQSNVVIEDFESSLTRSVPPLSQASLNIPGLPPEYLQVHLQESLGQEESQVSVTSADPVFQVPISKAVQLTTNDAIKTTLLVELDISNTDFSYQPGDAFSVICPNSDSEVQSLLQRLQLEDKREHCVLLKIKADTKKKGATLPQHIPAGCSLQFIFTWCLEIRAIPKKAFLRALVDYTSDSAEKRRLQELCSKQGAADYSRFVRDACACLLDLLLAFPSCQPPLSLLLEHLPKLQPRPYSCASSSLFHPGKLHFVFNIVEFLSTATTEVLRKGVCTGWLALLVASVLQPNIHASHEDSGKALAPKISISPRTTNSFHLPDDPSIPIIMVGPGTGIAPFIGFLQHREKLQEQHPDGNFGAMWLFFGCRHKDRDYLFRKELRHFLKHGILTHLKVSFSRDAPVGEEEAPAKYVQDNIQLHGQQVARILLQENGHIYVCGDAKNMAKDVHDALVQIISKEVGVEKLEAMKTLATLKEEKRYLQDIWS
UniProt Q9NZJ7, whole entry, looked up: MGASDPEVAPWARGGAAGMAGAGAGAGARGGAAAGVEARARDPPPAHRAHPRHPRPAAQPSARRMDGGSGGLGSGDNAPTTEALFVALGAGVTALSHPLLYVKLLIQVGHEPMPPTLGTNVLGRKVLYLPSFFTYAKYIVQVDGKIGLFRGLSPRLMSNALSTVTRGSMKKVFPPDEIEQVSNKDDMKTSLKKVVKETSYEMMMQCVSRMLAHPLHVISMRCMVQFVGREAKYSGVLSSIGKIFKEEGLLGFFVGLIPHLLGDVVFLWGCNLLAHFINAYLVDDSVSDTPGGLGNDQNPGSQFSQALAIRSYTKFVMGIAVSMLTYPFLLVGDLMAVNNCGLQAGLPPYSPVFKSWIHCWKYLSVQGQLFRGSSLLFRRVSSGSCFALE
UniProt O75431: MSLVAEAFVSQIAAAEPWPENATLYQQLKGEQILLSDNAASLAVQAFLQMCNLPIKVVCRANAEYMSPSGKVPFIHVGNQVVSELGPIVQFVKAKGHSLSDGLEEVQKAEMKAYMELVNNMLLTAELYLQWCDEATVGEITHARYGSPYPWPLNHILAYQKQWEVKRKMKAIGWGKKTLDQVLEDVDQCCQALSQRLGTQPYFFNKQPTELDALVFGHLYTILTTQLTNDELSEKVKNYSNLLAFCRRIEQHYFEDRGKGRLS
UniProt Q15390: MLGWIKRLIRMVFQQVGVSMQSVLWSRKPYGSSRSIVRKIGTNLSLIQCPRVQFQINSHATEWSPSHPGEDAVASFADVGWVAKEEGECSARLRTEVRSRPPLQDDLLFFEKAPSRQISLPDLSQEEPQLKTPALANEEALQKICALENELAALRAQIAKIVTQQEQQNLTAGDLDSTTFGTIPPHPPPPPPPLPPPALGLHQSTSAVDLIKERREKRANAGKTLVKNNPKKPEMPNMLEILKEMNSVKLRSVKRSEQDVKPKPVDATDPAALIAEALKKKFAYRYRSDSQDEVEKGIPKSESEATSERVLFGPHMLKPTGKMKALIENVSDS
UniProt P26038, whole entry, looked up: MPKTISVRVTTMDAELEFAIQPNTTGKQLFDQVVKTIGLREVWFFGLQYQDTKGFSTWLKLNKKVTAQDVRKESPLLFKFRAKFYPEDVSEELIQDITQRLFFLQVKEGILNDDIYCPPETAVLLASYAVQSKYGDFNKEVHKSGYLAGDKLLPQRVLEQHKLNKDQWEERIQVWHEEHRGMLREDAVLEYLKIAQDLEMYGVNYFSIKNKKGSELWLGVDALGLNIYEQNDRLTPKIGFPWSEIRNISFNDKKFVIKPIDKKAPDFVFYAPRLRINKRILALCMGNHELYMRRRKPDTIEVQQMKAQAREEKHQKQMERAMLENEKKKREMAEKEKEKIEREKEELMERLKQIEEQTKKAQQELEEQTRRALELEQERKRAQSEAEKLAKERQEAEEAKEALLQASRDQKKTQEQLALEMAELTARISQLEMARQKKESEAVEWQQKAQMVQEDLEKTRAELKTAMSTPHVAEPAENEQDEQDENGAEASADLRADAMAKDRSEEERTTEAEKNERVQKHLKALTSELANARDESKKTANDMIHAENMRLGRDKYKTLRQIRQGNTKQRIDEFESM
UniProt Q9UDX5: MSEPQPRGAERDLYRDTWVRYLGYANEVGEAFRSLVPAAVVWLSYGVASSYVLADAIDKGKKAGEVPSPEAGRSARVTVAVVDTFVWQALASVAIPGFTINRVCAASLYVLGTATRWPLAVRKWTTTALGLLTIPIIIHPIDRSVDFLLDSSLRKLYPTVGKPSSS
UniProt P13995: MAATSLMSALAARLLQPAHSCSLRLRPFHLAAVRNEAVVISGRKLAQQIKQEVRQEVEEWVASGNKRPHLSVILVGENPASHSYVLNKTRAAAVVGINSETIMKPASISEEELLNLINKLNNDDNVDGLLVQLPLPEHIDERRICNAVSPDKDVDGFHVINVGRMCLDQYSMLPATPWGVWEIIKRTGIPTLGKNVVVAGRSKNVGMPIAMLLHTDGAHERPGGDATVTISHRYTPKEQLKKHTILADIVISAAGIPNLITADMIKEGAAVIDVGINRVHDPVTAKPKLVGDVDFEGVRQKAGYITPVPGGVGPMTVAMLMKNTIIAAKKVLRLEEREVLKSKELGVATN
UniProt P82909: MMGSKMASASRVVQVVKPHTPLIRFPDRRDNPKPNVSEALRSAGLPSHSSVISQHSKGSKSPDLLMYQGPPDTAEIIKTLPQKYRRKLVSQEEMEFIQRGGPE
UniProt P58546, whole entry, looked up: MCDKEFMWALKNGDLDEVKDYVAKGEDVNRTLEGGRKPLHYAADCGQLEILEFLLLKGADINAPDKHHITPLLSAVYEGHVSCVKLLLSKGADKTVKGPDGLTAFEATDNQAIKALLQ
UniProt Q13505: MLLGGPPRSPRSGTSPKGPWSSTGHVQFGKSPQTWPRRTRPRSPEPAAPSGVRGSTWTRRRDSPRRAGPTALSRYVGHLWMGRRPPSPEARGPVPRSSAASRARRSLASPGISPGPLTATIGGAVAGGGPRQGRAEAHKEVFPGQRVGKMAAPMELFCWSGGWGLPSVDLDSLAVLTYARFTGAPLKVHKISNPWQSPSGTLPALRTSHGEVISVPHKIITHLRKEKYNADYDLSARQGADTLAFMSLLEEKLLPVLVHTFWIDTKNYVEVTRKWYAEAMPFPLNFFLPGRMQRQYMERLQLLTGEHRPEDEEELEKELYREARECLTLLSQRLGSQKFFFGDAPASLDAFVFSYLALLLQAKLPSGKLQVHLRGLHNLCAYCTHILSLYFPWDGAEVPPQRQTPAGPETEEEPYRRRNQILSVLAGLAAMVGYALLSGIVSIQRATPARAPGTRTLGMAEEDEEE

How the values were obtained:
Experiment in all cases: log2 fold change, soluble protein after heating vs DMSO (PISA); higher = thermal stabilisation; K562 cells, 10 uM, 30 min; active = over 0.2 and 3.5 SD of the protein, either way, in both replicates (recomputed)
[1] = compound: CC1=C(C=C(C=C1)NC(=O)C2=CC(=CC=C2)C(C)(C)C#N)NC3=CC4=C(C=C3)N=CN(C4=O)C
How it was run: (§1)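 K562 cells at 2×10^6 cells/mL were given 10 μM compound for 30 min. Aliquots then went through 3 min of heating across 48°C-58°C, were pooled, and were extracted in PBS with 0.5% NP-40 at 4°C, and the supernatant after 21,000xg for 90 min was quantified by TMTpro 16plex LC-MS/MS with channel sums equalised. Thermal stability relative to control samples, from duplicates, is given as log2 fold change.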

[2] = compound: CC1=C(C=C(C=C1)NC(=O)C2=CC(=CC=C2)N(C)C)NC(=O)C3=CC=C(C=C3)O
How it was run: as §1

[3] = compound: CC1=CC=C(C=C1)SC2=C3C=C(SC3=CN=C2)C(=O)N
How it was run: as §1

[4] = compound: CC1=NC(=CC=C1)C2=C(N=C(N2)C(C)(C)C)C3=CC4=NC=CN=C4C=C3
How it was run: as §1

Nexturastat A = compound: CCCCN(Cc1ccc(C(=O)NO)cc1)C(=O)Nc1ccccc1 [Nexturastat A]
How it was run: as §1

vemurafenib = compound: CCCS(=O)(=O)Nc1ccc(F)c(C(=O)c2c[nH]c3ncc(-c4ccc(Cl)cc4)cc23)c1F [vemurafenib]
How it was run: as §1

[5] = compound: CCCS(=O)(=O)Nc1ccc(F)c(C(=O)c2c[nH]c3ncc(Cl)cc23)c1F
How it was run: as §1

[6] = compound: CCCc1cc(C)[nH]c(=O)c1CNC(=O)c1cc(-c2ccnc(N3CCN(C)CC3)c2)cc2c1cnn2C(C)C
How it was run: as §1

givinostat = compound: CCN(CC)Cc1ccc2cc(COC(=O)Nc3ccc(C(=O)NO)cc3)ccc2c1 [givinostat]
How it was run: as §1

barasertib = compound: CCN(CCCOc1ccc2c(Nc3cc(CC(=O)Nc4cccc(F)c4)[nH]n3)ncnc2c1)CCOP(=O)(O)O [barasertib]
How it was run: as §1

[7] = compound: CC[C@@H]1C(=O)N(C)c2cnc(Nc3ccc(C(=O)NC4CCN(C)CC4)cc3OC)nc2N1C1CCCC1
How it was run: as §1

volasertib = compound: CC[C@@H]1C(=O)N(C)c2cnc(Nc3ccc(C(=O)N[C@H]4CC[C@H](N5CCN(CC6CC6)CC5)CC4)cc3OC)nc2N1C(C)C [volasertib]
How it was run: as §1

[8] = compound: CC[C@H](C)N1C=C(C2=C(C=C(C=C21)C3=CN=C(C=C3)N4CCNCC4)C(=O)NCC5=C(C=C(NC5=O)C)C)C
How it was run: as §1

epoxomicin = compound: CC[C@H](C)[C@@H](C(=O)N[C@@H]([C@@H](C)O)C(=O)N[C@@H](CC(C)C)C(=O)[C@]1(CO1)C)NC(=O)[C@H]([C@@H](C)CC)N(C)C(=O)C [epoxomicin]
How it was run: as §1

[9] = compound: CCn1c(C(=O)N(C2CC2)C2CC2)cc2c3c(ncn3C)c(Nc3cc(C)n(C)n3)nc21
How it was run: as §1

[10] = compound: CCn1cc(-c2ccnc3[nH]c(-c4cccc(CN(C)C)c4)cc23)c(-c2ccc(NC(=O)N(C)C)cc2)n1
How it was run: as §1

[11] = compound: CN(C)CC(=O)Nc1ccc2[nH]c(=O)c3ccccc3c2c1
How it was run: as §1

rosiglitazone = compound: CN(CCOC1=CC=C(C=C1)C[C@H]2C(=O)NC(=O)S2)C3=CC=CC=N3 (racemic) [rosiglitazone]
How it was run: as §1

[12] = compound: CN1C2=C(C3=C1C(=O)N(N=C3)CC4=CC(=CC=C4)N)SC(=C2)S(=O)C
How it was run: as §1

[13] = compound: CN1CCC(CNc2ccc3ncc(-c4cccc(OC(F)(F)F)c4)n3n2)CC1
How it was run: as §1

Measured: log2 fold change

MTMR3 (UniProt Q13615)
inactive: [1] 0.031 | [2] -0.032 | [3] 0.054 | [4] 0.074 | Nexturastat A 0.014 | vemurafenib 0.011 | [5] 0.098 | [6] -0.073 | givinostat -0.02 | barasertib 0.052 | [7] -0.068 | volasertib -0.092 | [8] 0.008 | epoxomicin -0.055 | [9] -0.074 | [10] -0.045 | [11] -0.013 | rosiglitazone 0.006 | [12] 0.011 | [13] -0.015

MTHFR isoform 2 (UniProt P42898)
inactive: [1] 0.026 | [2] 0.028 | [3] 0.003 | [4] 0.029 | Nexturastat A -0.051 | vemurafenib 0.007 | [5] -0.01 | [6] 0.004 | givinostat -0.027 | barasertib 0.02 | [7] 0 | volasertib 0.021 | [8] 0.017 | epoxomicin 0.038 | [9] -0.009 | [10] -0.01 | [11] 0.024 | rosiglitazone 0.002 | [12] -0.102 | [13] 0.008

MT-ND5 (UniProt P03915)
inactive: [1] -0.059 | [2] 0.046 | [3] 0.17 | [4] -0.019 | Nexturastat A -0.02 | vemurafenib -0.007 | [5] 0.199 | [6] -0.006 | givinostat -0.013 | barasertib -0.024 | [7] 0.032 | volasertib -0.076 | [8] 0.025 | epoxomicin -0.011 | [9] 0.053 | [10] 0.071 | [11] 0.029 | rosiglitazone 0.003 | [12] 0.035 | [13] 0.035

2 records drawn at random from the list so far, as already listed:
MTMR3 (UniProt Q13615)
inactive: [1] 0.031 | [2] -0.032 | [3] 0.054 | [4] 0.074 | Nexturastat A 0.014 | vemurafenib 0.011 | [5] 0.098 | [6] -0.073 | givinostat -0.02 | barasertib 0.052 | [7] -0.068 | volasertib -0.092 | [8] 0.008 | epoxomicin -0.055 | [9] -0.074 | [10] -0.045 | [11] -0.013 | rosiglitazone 0.006 | [12] 0.011 | [13] -0.015

MTHFR isoform 2 (UniProt P42898)
inactive: [1] 0.026 | [2] 0.028 | [3] 0.003 | [4] 0.029 | Nexturastat A -0.051 | vemurafenib 0.007 | [5] -0.01 | [6] 0.004 | givinostat -0.027 | barasertib 0.02 | [7] 0 | volasertib 0.021 | [8] 0.017 | epoxomicin 0.038 | [9] -0.009 | [10] -0.01 | [11] 0.024 | rosiglitazone 0.002 | [12] -0.102 | [13] 0.008

(listing goes on)

MRPS34 (UniProt P82930)
inactive: [1] 0.057 | [2] -0.039 | [3] 0.021 | [4] -0.037 | Nexturastat A 0.08 | vemurafenib 0.011 | [5] 0.037 | [6] 0.171 | givinostat 0.173 | barasertib -0.06 | [7] 0.06 | volasertib 0.004 | [8] 0.021 | epoxomicin -0.002 | [9] -0.068 | [10] -0.055 | [11] 0.036 | rosiglitazone -0.018 | [12] 0.051 | [13] 0.175

MTRR isoform 1 (UniProt Q9UBK8)
inactive: [1] 0.049 | [2] -0.086 | [3] 0.056 | [4] -0.041 | Nexturastat A -0.026 | vemurafenib -0.013 | [5] -0.034 | [6] -0.042 | givinostat 0.084 | barasertib 0.022 | [7] 0.009 | volasertib -0.101 | [8] -0.001 | epoxomicin 0.036 | [9] -0.172 | [10] -0.031 | [11] 0.089 | rosiglitazone 0.021 | [12] -0.033 | [13] -0.071

MTCH1 (UniProt Q9NZJ7)
inactive: [1] 0.051 | [2] -0.003 | [3] -0.042 | [4] 0.047 | Nexturastat A -0.094 | vemurafenib 0.04 | [5] -0.009 | [6] -0.05 | givinostat -0.024 | barasertib -0.018 | [7] 0.054 | volasertib 0.064 | [8] -0.018 | epoxomicin -0.035 | [9] -0.004 | [10] -0.038 | [11] -0.016 | rosiglitazone -0.002 | [12] -0.108 | [13] 0.104

MTX2 (UniProt O75431)
inactive: [1] -0.017 | [2] -0.008 | [3] -0.043 | [4] -0.024 | Nexturastat A 0.049 | vemurafenib 0.034 | [5] 0.008 | [6] -0.007 | givinostat 0.01 | barasertib -0.009 | [7] -0.005 | volasertib -0.044 | [8] 0.023 | epoxomicin -0.023 | [9] -0.022 | [10] -0.05 | [11] 0.012 | rosiglitazone 0.034 | [12] -0.026 | [13] 0.029

MRPS7 (UniProt Q9Y2R9)
inactive: [1] 0.03 | [2] -0.045 | [3] 0.025 | [4] 0.012 | Nexturastat A 0.218 | vemurafenib -0.013 | [5] 0.016 | [6] 0.094 | givinostat 0.059 | barasertib -0.022 | [7] 0.035 | volasertib 0.119 | [8] 0.116 | epoxomicin 0.091 | [9] 0.003 | [10] -0.014 | [11] 0.011 | rosiglitazone -0.019 | [12] -0.008 | [13] 0.117

MVB12A (UniProt Q96EY5)
inactive: [1] -0.015 | [2] 0.021 | [3] 0.018 | [4] -0.071 | Nexturastat A -0.01 | vemurafenib 0.041 | [5] 0.038 | [6] -0.024 | givinostat 0.071 | barasertib 0.069 | [7] -0.055 | volasertib -0.127 | [8] 0.056 | epoxomicin 0.016 | [9] -0.022 | [10] 0.073 | [11] 0.18 | rosiglitazone -0.001 | [12] -0.013 | [13] -0.101

MTFR1 (UniProt Q15390)
inactive: [1] -0.063 | [2] -0.02 | [3] 0.118 | [4] 0.012 | Nexturastat A 0.034 | vemurafenib 0.045 | [5] 0.037 | [6] -0.021 | givinostat -0.005 | barasertib -0.03 | [7] -0.021 | volasertib -0.034 | [8] -0.017 | epoxomicin 0.073 | [9] 0.02 | [10] -0.121 | [11] -0.047 | rosiglitazone 0.016 | [12] 0 | [13] -0.159

MSN (UniProt P26038)
inactive: [1] 0.053 | [2] 0.008 | [3] -0.02 | [4] 0.039 | Nexturastat A -0.027 | vemurafenib 0.042 | [5] 0.008 | [6] 0.026 | givinostat -0.023 | barasertib 0.028 | [7] -0.018 | volasertib 0.042 | [8] 0.024 | epoxomicin 0.036 | [9] 0.013 | [10] -0.032 | [11] -0.001 | rosiglitazone 0.016 | [12] -0.075 | [13] 0.085

MTFP1 (UniProt Q9UDX5)
inactive: [1] -0.044 | [2] -0.065 | [3] 0.033 | [4] -0.043 | Nexturastat A 0 | vemurafenib -0.038 | [5] -0.05 | [6] -0.197 | givinostat -0.01 | barasertib 0.007 | [7] 0.071 | volasertib 0.011 | [8] -0.041 | epoxomicin -0.045 | [9] 0.043 | [10] 0.019 | [11] 0.087 | rosiglitazone 0.009 | [12] -0.009 | [13] 0.036

MTHFD2 (UniProt P13995)
inactive: [1] 0.005 | [2] 0.023 | [3] 0.014 | [4] 0.035 | Nexturastat A -0.031 | vemurafenib -0.014 | [5] -0.002 | [6] -0.036 | givinostat 0.015 | barasertib 0.005 | [7] -0.024 | volasertib 0.025 | [8] 0.017 | epoxomicin 0.066 | [9] -0.017 | [10] -0.053 | [11] -0.023 | rosiglitazone 0.025 | [12] -0.026 | [13] -0.103

MRPS36 (UniProt P82909)
inactive: [1] 0.021 | [2] -0.059 | [3] -0.039 | [4] 0.01 | Nexturastat A -0.018 | vemurafenib -0.033 | [5] 0.035 | [6] 0.5 | givinostat 0.007 | barasertib -0.026 | [7] -0.03 | volasertib 0.08 | [8] -0.001 | epoxomicin 0.054 | [9] -0.027 | [10] -0.025 | [11] -0.008 | rosiglitazone -0.011 | [12] 0.078 | [13] -0.055

MTPN (UniProt P58546)
inactive: [1] -0.039 | [2] -0.055 | [3] 0.061 | [4] 0.037 | Nexturastat A 0 | vemurafenib -0.011 | [5] -0.015 | [6] -0.01 | givinostat -0.035 | barasertib 0.123 | [7] -0.131 | volasertib -0.18 | [8] 0.001 | epoxomicin 0.264 | [9] 0.036 | [10] 0.09 | [11] 0.012 | rosiglitazone -0.008 | [12] 0.018 | [13] 0.127

MTX1 (UniProt Q13505)
inactive: [1] -0.004 | [2] -0.019 | [3] -0.004 | [4] 0.02 | Nexturastat A -0.099 | vemurafenib 0.057 | [5] -0.032 | [6] -0.028 | givinostat -0.035 | barasertib 0.019 | [7] -0.034 | volasertib -0.061 | [8] 0.028 | epoxomicin 0.037 | [9] -0.007 | [10] -0.067 | [11] 0.007 | rosiglitazone 0.013 | [12] -0.077 | [13] 0.062
